PMC4391858
No constants are given. Whether binding was seen depends on the method and setting. In cells and extracts the contact can be indirect. Some entries that bind do so weakly or less than the wild type. For some of these results: Sequences can lack the tags named with a protein.

Protein sequences, listed by entry. Tags and fused reporters are not part of them. Lines headed by an entry give the natural chain unless they say otherwise; changes in a name come on top. Chains listed by the source or under a name are the forms on record and can include a tag or linker. Residues count along the entry.
UniProt Q01705, residues 19-2184: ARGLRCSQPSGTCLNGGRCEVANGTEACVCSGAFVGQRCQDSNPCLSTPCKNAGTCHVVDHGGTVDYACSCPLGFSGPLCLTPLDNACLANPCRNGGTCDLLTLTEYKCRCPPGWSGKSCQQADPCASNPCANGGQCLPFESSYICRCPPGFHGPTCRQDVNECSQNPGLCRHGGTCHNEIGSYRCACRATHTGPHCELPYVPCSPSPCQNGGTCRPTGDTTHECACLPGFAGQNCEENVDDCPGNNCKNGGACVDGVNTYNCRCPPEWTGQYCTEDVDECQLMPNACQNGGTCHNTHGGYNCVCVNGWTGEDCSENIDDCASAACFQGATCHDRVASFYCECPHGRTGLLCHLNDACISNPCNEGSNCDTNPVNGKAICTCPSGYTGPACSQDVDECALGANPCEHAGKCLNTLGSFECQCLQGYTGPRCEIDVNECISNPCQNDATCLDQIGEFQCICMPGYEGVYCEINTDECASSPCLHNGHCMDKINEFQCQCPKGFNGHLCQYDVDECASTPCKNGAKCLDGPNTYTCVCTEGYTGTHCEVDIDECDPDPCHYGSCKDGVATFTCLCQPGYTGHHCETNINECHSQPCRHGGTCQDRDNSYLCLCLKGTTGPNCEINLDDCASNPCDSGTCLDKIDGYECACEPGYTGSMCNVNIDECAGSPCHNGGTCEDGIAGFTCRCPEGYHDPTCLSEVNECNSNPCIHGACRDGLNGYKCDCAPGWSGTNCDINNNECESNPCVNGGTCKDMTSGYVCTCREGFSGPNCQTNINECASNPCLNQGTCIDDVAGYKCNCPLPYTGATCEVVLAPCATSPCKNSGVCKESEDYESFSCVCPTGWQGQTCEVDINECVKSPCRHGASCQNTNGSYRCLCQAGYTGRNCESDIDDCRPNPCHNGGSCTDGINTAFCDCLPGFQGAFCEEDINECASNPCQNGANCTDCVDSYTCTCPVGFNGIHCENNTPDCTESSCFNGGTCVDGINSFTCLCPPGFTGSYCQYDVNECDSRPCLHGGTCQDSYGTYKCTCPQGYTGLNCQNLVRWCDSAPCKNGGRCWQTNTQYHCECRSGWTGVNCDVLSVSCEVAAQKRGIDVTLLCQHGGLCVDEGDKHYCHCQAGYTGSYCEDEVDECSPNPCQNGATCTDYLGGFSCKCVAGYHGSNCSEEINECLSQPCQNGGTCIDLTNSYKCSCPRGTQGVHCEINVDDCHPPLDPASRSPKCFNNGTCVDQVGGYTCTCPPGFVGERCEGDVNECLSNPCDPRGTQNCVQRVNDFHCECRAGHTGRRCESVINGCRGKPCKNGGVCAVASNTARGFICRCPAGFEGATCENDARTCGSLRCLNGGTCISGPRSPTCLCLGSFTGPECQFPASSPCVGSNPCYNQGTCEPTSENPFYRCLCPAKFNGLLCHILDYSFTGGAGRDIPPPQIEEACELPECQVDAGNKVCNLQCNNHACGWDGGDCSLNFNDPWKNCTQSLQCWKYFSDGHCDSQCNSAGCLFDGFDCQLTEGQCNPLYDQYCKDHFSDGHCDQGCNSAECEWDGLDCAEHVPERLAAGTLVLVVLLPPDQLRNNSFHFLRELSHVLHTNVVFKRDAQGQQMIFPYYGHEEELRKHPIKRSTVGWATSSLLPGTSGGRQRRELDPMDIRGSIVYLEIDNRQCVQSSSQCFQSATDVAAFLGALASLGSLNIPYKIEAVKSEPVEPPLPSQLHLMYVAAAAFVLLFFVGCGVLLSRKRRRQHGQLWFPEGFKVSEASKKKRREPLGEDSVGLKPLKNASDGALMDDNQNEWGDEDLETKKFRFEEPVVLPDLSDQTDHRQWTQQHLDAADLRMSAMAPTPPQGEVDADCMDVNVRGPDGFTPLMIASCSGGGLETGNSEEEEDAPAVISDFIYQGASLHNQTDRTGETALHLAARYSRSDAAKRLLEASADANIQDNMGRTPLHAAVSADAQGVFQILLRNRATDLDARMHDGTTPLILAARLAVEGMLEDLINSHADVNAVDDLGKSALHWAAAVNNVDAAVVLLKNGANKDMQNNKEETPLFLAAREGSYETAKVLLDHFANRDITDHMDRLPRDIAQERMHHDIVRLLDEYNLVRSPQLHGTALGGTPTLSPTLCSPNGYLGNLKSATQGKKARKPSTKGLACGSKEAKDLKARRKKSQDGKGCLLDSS
Flag-tagged DLL3-S286A,T403V (O88516, form named): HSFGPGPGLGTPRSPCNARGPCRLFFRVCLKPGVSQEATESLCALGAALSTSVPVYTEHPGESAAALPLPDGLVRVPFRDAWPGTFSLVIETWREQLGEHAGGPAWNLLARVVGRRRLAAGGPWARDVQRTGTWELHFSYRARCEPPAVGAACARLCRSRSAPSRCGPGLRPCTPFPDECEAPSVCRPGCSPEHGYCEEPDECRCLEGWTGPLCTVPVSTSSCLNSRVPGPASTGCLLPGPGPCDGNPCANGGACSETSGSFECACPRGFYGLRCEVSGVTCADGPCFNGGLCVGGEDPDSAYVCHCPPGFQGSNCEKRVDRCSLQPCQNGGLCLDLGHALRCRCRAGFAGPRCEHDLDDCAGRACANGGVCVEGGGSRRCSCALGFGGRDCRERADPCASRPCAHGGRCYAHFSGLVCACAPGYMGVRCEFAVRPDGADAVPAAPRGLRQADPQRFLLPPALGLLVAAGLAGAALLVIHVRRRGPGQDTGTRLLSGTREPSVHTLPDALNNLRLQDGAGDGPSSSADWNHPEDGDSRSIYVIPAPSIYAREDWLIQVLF
UniProt Q61483, residues 18-722: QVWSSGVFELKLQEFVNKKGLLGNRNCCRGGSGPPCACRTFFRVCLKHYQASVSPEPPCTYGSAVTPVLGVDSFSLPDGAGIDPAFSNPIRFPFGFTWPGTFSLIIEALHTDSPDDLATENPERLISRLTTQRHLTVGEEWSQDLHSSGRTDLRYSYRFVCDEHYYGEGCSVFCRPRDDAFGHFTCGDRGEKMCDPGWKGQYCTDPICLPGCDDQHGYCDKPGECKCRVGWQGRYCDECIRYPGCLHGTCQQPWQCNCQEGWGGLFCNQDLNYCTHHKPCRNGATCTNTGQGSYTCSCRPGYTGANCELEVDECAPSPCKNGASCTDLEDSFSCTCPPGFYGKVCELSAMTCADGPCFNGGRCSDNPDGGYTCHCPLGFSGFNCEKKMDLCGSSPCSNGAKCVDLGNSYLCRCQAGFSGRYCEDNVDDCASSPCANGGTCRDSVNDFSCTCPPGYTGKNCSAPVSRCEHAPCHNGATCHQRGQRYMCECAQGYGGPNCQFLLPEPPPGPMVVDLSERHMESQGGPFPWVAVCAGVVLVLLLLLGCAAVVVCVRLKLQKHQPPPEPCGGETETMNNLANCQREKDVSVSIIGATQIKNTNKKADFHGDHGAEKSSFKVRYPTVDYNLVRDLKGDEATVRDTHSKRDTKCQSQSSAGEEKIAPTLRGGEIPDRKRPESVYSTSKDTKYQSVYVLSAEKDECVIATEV

B1: HA-tagged mouse Lunatic fringe (LFNG) (enzyme, UniProt O09010 1-378)
chain: MLQRCGRRLLLALVGALLACLLVLTADPPPTPMPAERGRRALRSLAGSSGGAPASGSRAAVDPGVLTREVHSLSEYFSLLTRARRDADPPPGVASRQGDGHPRPPAEVLSPRDVFIAVKTTRKFHRARLDLLFETWISRHKEMTFIFTDGEDEALAKLTGNVVLTNCSSAHSRQALSCKMAVEYDRFIESGKKWFCHVDDDNYVNLRALLRLLASYPHTQDVYIGKPSLDRPIQATERISEHKVRPVHFWFATGGAGFCISRGLALKMGPWASGGHFMSTAERIRLPDDCTIGYIVEALLGVPLIRSGLFHSHLENLQQVPTTELHEQVTLSYGMFENKRNAVHIKGPFSVEADPSRFRSVHCHLYPDTPWCPRSAIF

What was measured:
[1] = biological target: Myc-tagged Notch1 (Notch1Myc-pCS2+, AA 1 to 2184 of mouse Notch1 with 6-fold Myc-tag) (mouse) (UniProt Q01705); test: co-IP; proteins co-expressed in CHO cells; lysis in 50 mM Tris-HCl pH 7.5, 150 mM NaCl, 1 mM EDTA, 1% NP-40, 1% Triton X-100; IP with anti-Flag, anti-Myc or anti-LFNG antibody and Protein G Ultralink resin overnight at 4°C; washes with 500 mM NaCl buffer; Western blot
[2] = biological target: Flag-tagged DLL3-S286A,T403V (mouse) (UniProt O88516); test: as above

| Molecule | binding [1] | binding [2] |
| --- | --- | --- |
| Flag-tagged DLL3-S286A,T403V (from UniProt O88516 33-592) | binds |  |
| Myc-tagged Notch1 (Notch1Myc-pCS2+, AA 1 to 2184 of mouse Notch1 with 6-fold Myc-tag) (from UniProt Q01705 19-2184) (receptor) |  | binds |
| MycHis-tagged DLL1 (from UniProt Q61483 18-722) (ligand) |  | binds |
| B1 |  | binds |
